The values below come from the supplement of paper PMC6411743.

The chains behind the UniProt entries cited, without tags or fusion partners. Where a name states a change or a piece, a line headed by the entry shows the natural chain unless it says otherwise.
UniProt Q9NZL9, whole entry: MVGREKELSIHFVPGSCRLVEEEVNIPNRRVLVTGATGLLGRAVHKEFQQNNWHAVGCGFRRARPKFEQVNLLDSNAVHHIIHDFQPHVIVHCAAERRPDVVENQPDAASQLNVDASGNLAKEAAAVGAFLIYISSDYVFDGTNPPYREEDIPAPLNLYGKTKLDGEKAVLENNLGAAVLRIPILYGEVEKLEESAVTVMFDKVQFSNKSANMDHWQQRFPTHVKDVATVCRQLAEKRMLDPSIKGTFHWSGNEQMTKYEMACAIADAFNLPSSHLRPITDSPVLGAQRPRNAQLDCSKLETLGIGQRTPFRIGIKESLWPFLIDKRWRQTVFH
UniProt Q9NWB6: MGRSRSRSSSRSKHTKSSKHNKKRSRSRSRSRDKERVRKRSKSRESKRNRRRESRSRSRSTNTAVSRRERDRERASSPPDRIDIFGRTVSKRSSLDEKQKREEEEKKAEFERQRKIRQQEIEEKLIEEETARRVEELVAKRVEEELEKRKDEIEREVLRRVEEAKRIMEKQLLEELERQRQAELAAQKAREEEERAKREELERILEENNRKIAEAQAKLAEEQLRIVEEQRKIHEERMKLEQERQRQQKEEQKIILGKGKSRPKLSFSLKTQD
UniProt Q9UBP6: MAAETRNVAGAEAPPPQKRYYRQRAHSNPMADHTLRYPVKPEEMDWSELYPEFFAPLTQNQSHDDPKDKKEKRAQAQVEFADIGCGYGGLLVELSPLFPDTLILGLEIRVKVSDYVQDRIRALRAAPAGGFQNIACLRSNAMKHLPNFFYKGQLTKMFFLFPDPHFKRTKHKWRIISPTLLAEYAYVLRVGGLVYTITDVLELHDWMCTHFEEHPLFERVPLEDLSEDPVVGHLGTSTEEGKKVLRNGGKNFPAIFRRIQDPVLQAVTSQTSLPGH
UniProt Q9NZW5: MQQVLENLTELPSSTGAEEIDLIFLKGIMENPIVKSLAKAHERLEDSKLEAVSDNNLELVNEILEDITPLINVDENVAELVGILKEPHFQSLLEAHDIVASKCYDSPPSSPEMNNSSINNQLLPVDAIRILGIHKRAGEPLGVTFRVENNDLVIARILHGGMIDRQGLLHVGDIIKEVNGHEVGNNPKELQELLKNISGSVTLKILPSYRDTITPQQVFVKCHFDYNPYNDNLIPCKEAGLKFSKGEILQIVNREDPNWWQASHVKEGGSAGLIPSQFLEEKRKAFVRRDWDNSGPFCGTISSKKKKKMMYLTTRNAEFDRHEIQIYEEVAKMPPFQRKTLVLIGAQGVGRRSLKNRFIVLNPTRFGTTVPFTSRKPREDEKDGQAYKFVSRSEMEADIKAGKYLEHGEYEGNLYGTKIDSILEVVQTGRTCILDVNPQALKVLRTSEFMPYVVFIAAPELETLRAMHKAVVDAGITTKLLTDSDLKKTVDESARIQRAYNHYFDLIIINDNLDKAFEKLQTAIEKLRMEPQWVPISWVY
UniProt Q9NX08, whole entry: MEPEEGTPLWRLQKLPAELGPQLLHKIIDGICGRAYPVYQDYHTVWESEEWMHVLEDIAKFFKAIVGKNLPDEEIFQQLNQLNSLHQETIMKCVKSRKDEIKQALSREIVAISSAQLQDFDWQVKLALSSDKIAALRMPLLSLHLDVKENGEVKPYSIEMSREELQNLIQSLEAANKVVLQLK
UniProt Q9NZN8, whole entry: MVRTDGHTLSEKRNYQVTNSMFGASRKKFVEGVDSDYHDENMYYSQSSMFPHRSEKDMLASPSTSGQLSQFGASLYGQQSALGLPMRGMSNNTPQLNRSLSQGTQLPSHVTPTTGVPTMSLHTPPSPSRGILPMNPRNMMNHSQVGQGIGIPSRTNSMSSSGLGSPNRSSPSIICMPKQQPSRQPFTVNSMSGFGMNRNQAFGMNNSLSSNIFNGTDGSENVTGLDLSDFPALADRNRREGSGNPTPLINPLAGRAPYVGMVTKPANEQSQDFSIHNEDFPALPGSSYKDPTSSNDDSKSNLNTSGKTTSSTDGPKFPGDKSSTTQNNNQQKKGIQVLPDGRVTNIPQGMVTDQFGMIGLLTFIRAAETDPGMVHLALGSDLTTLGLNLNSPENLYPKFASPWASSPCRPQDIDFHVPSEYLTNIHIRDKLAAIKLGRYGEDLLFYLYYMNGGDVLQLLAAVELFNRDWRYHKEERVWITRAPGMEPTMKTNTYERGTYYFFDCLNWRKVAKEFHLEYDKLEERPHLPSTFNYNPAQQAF
UniProt Q9NX40: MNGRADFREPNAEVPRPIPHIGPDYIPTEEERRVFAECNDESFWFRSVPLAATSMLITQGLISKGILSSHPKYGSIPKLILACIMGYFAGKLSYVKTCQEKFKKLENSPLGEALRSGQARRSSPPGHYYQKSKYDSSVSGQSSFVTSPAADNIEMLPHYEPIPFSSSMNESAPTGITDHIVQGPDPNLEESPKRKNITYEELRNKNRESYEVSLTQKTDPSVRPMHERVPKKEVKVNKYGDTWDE
UniProt Q9NRG0: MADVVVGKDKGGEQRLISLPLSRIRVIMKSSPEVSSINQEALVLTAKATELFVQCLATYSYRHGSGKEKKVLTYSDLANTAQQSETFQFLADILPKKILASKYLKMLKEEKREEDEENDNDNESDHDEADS
UniProt Q9UBG0: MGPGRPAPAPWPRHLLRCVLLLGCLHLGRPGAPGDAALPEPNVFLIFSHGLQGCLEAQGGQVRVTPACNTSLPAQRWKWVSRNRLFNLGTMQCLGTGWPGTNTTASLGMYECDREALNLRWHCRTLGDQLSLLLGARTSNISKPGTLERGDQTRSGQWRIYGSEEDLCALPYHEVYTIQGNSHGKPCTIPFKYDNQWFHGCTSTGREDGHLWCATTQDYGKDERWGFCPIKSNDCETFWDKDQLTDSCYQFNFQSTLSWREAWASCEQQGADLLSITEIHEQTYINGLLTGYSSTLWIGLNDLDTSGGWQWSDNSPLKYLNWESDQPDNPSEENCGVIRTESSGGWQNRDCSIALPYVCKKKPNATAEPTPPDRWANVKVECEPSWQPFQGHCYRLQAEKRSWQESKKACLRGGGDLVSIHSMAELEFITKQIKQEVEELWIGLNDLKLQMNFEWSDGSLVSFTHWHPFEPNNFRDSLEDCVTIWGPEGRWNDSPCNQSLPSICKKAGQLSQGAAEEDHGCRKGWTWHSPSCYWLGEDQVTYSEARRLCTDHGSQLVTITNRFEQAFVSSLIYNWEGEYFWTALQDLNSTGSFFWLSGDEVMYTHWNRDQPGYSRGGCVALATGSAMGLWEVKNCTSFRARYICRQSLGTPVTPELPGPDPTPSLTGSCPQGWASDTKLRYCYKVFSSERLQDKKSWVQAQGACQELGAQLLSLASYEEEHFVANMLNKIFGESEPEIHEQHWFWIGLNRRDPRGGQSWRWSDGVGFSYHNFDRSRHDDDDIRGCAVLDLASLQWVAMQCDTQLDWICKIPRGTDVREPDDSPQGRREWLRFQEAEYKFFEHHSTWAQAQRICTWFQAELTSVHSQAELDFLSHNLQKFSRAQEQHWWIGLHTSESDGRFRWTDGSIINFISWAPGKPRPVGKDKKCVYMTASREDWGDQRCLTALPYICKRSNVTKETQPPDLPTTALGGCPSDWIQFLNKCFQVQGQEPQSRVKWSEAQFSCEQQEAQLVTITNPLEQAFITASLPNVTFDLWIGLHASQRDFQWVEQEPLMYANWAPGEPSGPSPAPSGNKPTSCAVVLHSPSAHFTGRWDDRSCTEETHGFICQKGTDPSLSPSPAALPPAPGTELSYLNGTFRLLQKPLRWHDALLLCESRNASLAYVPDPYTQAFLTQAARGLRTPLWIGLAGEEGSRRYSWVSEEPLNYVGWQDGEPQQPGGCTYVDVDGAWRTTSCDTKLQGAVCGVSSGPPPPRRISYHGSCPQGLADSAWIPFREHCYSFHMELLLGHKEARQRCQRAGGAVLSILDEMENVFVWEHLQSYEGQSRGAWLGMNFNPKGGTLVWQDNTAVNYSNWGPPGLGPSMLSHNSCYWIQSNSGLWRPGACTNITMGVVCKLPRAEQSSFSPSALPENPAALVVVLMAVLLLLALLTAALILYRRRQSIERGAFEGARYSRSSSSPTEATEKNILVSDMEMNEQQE
UniProt Q9NZB2: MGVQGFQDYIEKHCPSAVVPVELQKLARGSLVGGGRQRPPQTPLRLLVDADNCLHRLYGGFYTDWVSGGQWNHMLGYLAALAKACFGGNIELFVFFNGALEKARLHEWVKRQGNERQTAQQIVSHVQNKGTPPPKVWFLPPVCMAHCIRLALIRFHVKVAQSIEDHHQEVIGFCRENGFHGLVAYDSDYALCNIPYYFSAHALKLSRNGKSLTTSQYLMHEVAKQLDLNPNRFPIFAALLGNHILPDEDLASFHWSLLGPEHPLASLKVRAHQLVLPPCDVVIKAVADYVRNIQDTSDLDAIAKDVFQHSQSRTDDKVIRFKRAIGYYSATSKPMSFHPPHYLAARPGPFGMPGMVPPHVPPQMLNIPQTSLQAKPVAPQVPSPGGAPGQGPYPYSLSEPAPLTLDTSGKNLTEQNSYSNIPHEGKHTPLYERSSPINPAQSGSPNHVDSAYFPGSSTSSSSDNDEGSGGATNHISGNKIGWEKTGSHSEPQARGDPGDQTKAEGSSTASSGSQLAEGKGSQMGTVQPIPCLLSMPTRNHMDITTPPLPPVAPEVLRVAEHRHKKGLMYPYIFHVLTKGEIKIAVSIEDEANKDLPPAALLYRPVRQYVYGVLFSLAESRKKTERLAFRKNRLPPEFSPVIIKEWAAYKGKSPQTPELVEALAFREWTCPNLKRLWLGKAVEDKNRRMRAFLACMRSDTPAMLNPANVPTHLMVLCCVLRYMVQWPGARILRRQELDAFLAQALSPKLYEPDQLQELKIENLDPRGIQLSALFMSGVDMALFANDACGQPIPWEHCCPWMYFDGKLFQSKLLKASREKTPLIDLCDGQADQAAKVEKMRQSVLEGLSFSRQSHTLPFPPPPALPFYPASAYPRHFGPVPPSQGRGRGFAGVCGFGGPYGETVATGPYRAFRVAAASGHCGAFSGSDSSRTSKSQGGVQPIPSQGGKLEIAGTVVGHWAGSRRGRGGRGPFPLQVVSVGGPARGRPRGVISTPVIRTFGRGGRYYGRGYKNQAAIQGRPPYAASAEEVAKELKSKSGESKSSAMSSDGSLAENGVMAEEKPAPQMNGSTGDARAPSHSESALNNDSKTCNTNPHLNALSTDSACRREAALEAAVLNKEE
UniProt Q9NRF9: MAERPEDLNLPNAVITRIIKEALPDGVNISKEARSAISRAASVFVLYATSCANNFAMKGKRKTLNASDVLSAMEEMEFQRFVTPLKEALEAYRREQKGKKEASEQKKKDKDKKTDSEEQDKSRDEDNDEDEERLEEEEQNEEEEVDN
UniProt Q9NX46: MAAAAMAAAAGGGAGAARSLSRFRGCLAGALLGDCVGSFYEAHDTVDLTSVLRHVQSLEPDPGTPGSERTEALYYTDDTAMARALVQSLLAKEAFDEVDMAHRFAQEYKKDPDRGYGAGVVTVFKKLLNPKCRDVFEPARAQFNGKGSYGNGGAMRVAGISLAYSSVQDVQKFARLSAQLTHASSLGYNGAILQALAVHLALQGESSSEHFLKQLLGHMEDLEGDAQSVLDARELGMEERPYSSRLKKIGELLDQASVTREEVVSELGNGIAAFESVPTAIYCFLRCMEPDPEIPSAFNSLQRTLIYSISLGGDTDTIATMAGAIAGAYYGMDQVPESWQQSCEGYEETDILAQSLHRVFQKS
UniProt Q9NZJ9: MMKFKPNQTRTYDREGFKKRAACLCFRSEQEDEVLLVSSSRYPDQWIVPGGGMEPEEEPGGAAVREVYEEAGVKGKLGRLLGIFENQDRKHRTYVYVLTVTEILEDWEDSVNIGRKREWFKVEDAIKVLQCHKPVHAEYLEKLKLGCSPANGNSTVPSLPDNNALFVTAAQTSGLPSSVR
UniProt Q9NR45: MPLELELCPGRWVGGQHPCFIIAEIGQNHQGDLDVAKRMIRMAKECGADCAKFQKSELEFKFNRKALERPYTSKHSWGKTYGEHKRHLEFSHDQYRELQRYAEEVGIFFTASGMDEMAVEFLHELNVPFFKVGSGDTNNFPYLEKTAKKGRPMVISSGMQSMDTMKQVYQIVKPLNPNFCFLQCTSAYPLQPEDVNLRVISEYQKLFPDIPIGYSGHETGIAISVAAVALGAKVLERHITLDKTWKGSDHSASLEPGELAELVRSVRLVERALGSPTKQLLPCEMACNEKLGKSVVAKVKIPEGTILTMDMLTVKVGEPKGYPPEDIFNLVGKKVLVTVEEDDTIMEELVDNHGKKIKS
UniProt Q9NY12: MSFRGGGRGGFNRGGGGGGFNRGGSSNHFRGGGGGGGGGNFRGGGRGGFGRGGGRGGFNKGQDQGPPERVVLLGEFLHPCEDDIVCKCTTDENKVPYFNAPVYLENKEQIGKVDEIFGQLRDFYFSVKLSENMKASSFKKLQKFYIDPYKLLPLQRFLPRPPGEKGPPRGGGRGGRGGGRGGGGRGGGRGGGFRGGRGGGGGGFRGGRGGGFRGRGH

± gives the standard deviation of the averaged measurements. The list shows a part of the results, in another mix than the full data. Small differences around the control level are noise.

Compound in this test: Nc1ncnc2c1ncn2[C@@H]1O[C@H](COP(=O)(O)OP(=O)(O)NP(=O)(O)O)[C@@H](O)[C@H]1O [adenylyl imidodiphosphate]
Description: NP40-soluble protein abundance relative to vehicle (solubility fold change) (ratio); higher = more soluble protein in presence of AMP-PNP. Summed up: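 Crude Jurkat lysate, prepared by Dounce homogenisation, was exposed to eight concentrations from 0.1 to 10 mM for 10 min at room temperature and then 3 min at 37 °C. Solubilisation used 0.8% NP40 with benzonase for 60 min at 4 °C, followed by ultracentrifugation and TMT labelling of the supernatant for LC-MS/MS. After vsn normalisation of intensities, each value is the fold change against the detergent-processed vehicle within each replicate, across three independent experiments.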

Turning to UniProt Q9NZL9 and related entries, the NP40-soluble protein abundance runs as follows: (concentration: 0.1mM) 1.07 ± 0.018; (concentration: 0.5mM) 0.9954 ± 0.0041.

Turning to ARGLU1 (UniProt Q9NWB6), the NP40-soluble protein abundance is 1.03 ± 0.024 (concentration: 0.1mM) and 1.1 ± 0.12 (concentration: 0.5mM).

On to METTL1 (UniProt Q9UBP6), for which the NP40-soluble protein abundance (concentration: 0.1mM) is 0.987 ± 0.023 and the NP40-soluble protein abundance (concentration: 0.5mM) is 0.9746 ± 0.0094.

For MPP6 (UniProt Q9NZW5), the NP40-soluble protein abundance (concentration: 0.1mM) turned out to be 0.997 ± 0.023 and the NP40-soluble protein abundance (concentration: 0.5mM) turned out to be 0.994 ± 0.046.

On to UniProt Q9NUT2 and related entries, for which the NP40-soluble protein abundance (concentration: 0.1mM) turned out to be 1.08 ± 0.022 and the NP40-soluble protein abundance (concentration: 0.5mM) worked out at 1 ± 0.053.

Consider UniProt Q9NZM5, for which the NP40-soluble protein abundance runs as follows: (concentration: 0.1mM) 0.985 ± 0.068; (concentration: 0.5mM) 1.013 ± 0.0023.

With COMMD8 (UniProt Q9NX08), the NP40-soluble protein abundance by setting is: (concentration: 0.1mM) 1.01 ± 0.016; (concentration: 0.5mM) 1 ± 0.043.

For the target UniProt Q9P109, the NP40-soluble protein abundance is, setting by setting: (concentration: 0.1mM) 0.996 ± 0.027; (concentration: 0.5mM) 0.997 ± 0.045.

As to UniProt Q9NZN8 and related entries, the NP40-soluble protein abundance runs as follows: (concentration: 0.1mM) 0.915 ± 0.03; (concentration: 0.5mM) 0.943 ± 0.078.

Turning to OCIAD1 (UniProt Q9NX40), the NP40-soluble protein abundance reads like this: (concentration: 0.1mM) 0.989 ± 0.021; (concentration: 0.5mM) 1.02 ± 0.041.

Take UniProt Q9NRG0 and related entries: the NP40-soluble protein abundance is, setting by setting: (concentration: 0.1mM) 1.02 ± 0.021; (concentration: 0.5mM) 1.04 ± 0.065.

Consider MRC2 (UniProt Q9UBG0), for which the NP40-soluble protein abundance came out at 1.01 ± 0.0033 (concentration: 0.1mM) and 1.01 ± 0.028 (concentration: 0.5mM).

KLHL11 (UniProt Q9NVR0): the NP40-soluble protein abundance (concentration: 0.1mM) is 1.02 ± 0.046 and the NP40-soluble protein abundance (concentration: 0.5mM) came out at 0.976 ± 0.056.

Regarding UniProt Q9NZB2 and related entries, the NP40-soluble protein abundance (concentration: 0.1mM) is 1.05 ± 0.036 and the NP40-soluble protein abundance (concentration: 0.5mM) amounted to 1.01 ± 0.018.

Consider POLE3 (UniProt Q9NRF9), for which the NP40-soluble protein abundance (concentration: 0.1mM) worked out at 1.03 ± 0.089 and the NP40-soluble protein abundance (concentration: 0.5mM) amounted to 1.04 ± 0.041.

Take UniProt Q9NY93 and related entries: the NP40-soluble protein abundance (concentration: 0.1mM) amounted to 1.01 ± 0.015 and the NP40-soluble protein abundance (concentration: 0.5mM) was 1.005 ± 0.0093.

Turning to ADPRHL2 (UniProt Q9NX46), the NP40-soluble protein abundance runs as follows: (concentration: 0.1mM) 0.9594 ± 0.0092; (concentration: 0.5mM) 0.954 ± 0.027.

UniProt Q9NZJ9 and related entries: the NP40-soluble protein abundance runs as follows: (concentration: 0.1mM) 1.05 ± 0.034; (concentration: 0.5mM) 1.05 ± 0.061.

Regarding NANS (UniProt Q9NR45), the NP40-soluble protein abundance reads like this: (concentration: 0.1mM) 0.9862 ± 0.0088; (concentration: 0.5mM) 0.986 ± 0.045.

For the target UniProt Q9NY12 and related entries, the NP40-soluble protein abundance (concentration: 0.1mM) is 1.06 ± 0.052 and the NP40-soluble protein abundance (concentration: 0.5mM) is 1 ± 0.059.

With UniProt Q9NV96 and related entries, the NP40-soluble protein abundance was determined as 0.924 ± 0.049 (concentration: 0.1mM) and 0.9909 ± 0.0088 (concentration: 0.5mM).

As for ZNFX1 (UniProt Q9P2E3), the NP40-soluble protein abundance (concentration: 0.1mM) was 1 ± 0.018 and the NP40-soluble protein abundance (concentration: 0.5mM) was determined as 0.969 ± 0.035.
